Experimental data as given in US20140346397A1.
These are yes or no findings as the source states them, for the method shown. Some binding calls cover weakened binding; strength is not graded here.

Chains of the proteins cited; added tags and fusions are not shown. Lines headed by an entry give the natural chain unless they say otherwise; changes in a name come on top.
UniProt P00742: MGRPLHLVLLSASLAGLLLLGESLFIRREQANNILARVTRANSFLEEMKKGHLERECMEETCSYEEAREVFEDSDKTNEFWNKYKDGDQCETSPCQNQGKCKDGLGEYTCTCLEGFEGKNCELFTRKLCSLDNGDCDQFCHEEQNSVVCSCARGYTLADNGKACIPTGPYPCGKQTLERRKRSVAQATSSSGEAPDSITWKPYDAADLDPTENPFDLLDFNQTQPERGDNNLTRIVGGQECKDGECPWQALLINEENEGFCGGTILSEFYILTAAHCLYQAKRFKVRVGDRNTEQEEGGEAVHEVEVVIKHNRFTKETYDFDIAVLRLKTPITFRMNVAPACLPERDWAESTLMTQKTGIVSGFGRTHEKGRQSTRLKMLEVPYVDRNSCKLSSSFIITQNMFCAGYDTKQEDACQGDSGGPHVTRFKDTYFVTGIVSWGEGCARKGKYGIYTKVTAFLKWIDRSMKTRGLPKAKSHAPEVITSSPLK

Legend:
[1] = target: r-Antidote (fXa derivative, cleaved two-chain polypeptide with the linker removed) (human) (UniProt P00742); assay: affinity chromatography on immobilised STI, SDS-PAGE of the purified protein (FIG. 5)
[2] = target: r-Antidote (fXa derivative, cleaved two-chain polypeptide with the linker removed) (human) (UniProt P00742); assay: affinity chromatography on immobilised STI, elution of the bound protein
[3] = target: r-Antidote (fXa derivative, cleaved two-chain polypeptide with the linker removed) (human) (UniProt P00742); assay: affinity chromatography on immobilised STI, SDS-PAGE of the purified protein (FIG. 6)

binding [1]: binds | binding [2]: binds | binding [3]: binds
B1: Soyabean Trypsin Inhibitor (STI), on STI affinity resin (protein, UniProt P01070 25-205, looked up)
chain: DFVLDNEGNPLENGGTYYILSDITAFGGIRAAPTGNERCPLTVVQSRNELDKGIGTIISSPYRIRFIAEGHPLSLKFDSFAVIMLCVGIPTEWSVVEDLPEGPAVKIGENKDAMDGWFRLERVSDDEFNNYKLVFCPQQAEDDKCGDIGISIDHDDGTRRLVVSKNKPLVVQFQKLDKESL
